Our source for the binding values is patent publication US20080032927A1 (published 2008).

Amino acid sequences for entries named in this document (tags omitted).
UniProt Q9NQB0: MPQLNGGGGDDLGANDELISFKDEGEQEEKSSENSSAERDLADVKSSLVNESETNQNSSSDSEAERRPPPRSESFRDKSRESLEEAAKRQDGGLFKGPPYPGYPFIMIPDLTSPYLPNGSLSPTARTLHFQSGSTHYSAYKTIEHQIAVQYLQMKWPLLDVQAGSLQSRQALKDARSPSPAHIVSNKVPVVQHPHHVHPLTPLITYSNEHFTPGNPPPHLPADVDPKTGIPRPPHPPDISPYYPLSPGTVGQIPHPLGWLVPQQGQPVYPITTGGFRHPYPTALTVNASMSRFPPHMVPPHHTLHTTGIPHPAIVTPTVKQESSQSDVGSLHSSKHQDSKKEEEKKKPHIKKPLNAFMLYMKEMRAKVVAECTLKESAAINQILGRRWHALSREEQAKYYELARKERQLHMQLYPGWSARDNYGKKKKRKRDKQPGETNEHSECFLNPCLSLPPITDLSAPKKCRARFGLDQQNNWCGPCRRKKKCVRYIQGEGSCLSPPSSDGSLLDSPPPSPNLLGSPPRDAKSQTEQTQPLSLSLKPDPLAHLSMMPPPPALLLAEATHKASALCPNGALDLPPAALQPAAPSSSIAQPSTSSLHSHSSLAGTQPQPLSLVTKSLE

Results are given in words; binding and its absence hold for the method and conditions named. Binding seen in cells or lysates may run through a third protein. Some entries that bind do so weakly or less than the wild type. For some of these results: Where a sequence is shown, tags or fusion partners need not be part of it.

The target of assay [1] is T1, TCF4 (UniProt Q9NQB0 1-619, limits assumed).
T1 construct: Endogenous protein of HCT116 cells; also called endogenous TCF4
Nature of the assay: co-immunoprecipitation with anti-TCF4 beads. The procedure: Co-immunoprecipitation-The affinity-protein G beads were prepared by mixing 20 μl of protein G plus-Agarose beads (Santa Cruz Biotechnology) with 1 μg of corresponding antibody. A total of 2×10⁶ of cells were lysed with 1× cells lysis buffer (Promega) containing 1× protease inhibitor reagent (Roche), incubated on ice for 30 minutes, sonicated briefly, and centrifuged at 12,000 g for 5 minutes at 4° C. The supernatants were further cleaned with 20 μl of untreated protein G plus-Agarose beads and 2 μg of pre-immune serum for 2 hours at 4° C. The supernatants were then mixed with 20 μl of prelabeled protein G plus-Agarose beads at 4° C. overnight. The beads were washed four times with PBS plus 0.2% NP40.
Xom binds to LEF1/TCF factors in vivo and in vitro-Binding of LEF1/TCFs to the promoter of TOPflash is required for the activation of the reporter construct; thus, the finding that expression of Xom activates TOPflash but not FOPflash raised the possibility that Xom activates the TOPflash reporter through interaction with LEF1/TCFs. This hypothesis was tested by determining whether Xom physically interacts with LEF1/TCFs. Co-immunoprecipitation experiments was carried out in HCT116 cells transiently transfected with mye-Xom. […] The in vivo association between Xom and TCF4 appears to be strong and could not be dissociated with 300 mM NaCl and 0.1% NP40. To determine the domain of Xom that mediates its interaction with LEF1/TCFs, serial deletion mutants of Xom were made and tested for their interactions with TCF4 in vivo. The proteins used were: wild type Xom (aa 1-326), XomND55 (aa. 56-326), XomND175 (aa. 176-326), XomCD145 (aa. 146-326), XomCD85 (aa. 86-326), and XomID110 (fusion of aa 1-130 and aa 241-326).

In assay [2] the target is T1, TCF4. The experiment in a line: co-immunoprecipitation from HCT116 cells transfected with myc-Xom; association not dissociated with 300 mM NaCl and 0.1% NP40.

B1: XomND175 (protein)
chain: RLRTAFTSDQISTLEKTFQKHRYLGASERQKLAAKLQLSEVQIKTWFQNRRMKYKREIQDGRPDSYHPAQFFGVYGYAQQPTPVFQHAVQHPYPGYNPLMETLPGTMPYTMHPPAMDSMTPFNSQPFQMLYLPQQHLGQPLTYQEERPFVR
Regarding B1, the binding entry with TCF4 [1] is reported as “binds”.

B2: XomCD85 (protein)
chain: MTKAFSSVEWLAQSSRRSHREQPSKVDQRYSPYPSPSLPSWNSDVSPSSWNSQLSPDPDSAQVSPCPASAQVSPYSSDSEISLYSHEEEASFYGMDLNTSSSPGDNGLLHSEMVSVPDNIPRASSDEDAAKSAYSTSTDSGYESETSCSSSTAPEGDAISLSPNDTSDEEGKMGRRLRTAFTSDQISTLEKTFQKHRYLGASERQKLAAKLQLSEVQIKTWFQNRRMKYKREIQDGRPDSY
As for B2, in the assay with TCF4 [1], the binding result is listed as “binds”.

B3: myc-Xom (protein, not shown: small tags and cut ends)
chain: MTKAFSSVEWLAQSSRRSHREQPSKVDQRYSPYPSPSLPSWNSDVSPSSWNSQLSPDPDSAQVSPCPASAQVSPYSSDSEISLYSHEEEASFYGMDLNTSSSPGDNGLLHSEMVSVPDNIPRASSDEDAAKSAYSTSTDSGYESETSCSSSTAPEGDAISLSPNDTSDEEGKMGRRLRTAFTSDQISTLEKTFQKHRYLGASERQKLAAKLQLSEVQIKTWFQNRRMKYKREIQDGRPDSYHPAQFFGVYGYAQQPTPVFQHAVQHPYPGYNPLMETLPGTMPYTMHPPAMDSMTPFNSQPFQMLYLPQQHLGQPLTYQEERPFVRY
B3: in the assay with TCF4 [2], the binding entry is recorded as “binds”.

B4: XomND55 (protein)
chain: PDPDSAQVSPCPASAQVSPYSSDSEISLYSHEEEASFYGMDLNTSSSPGDNGLLHSEMVSVPDNIPRASSDEDAAKSAYSTSTDSGYESETSCSSSTAPEGDAISLSPNDTSDEEGKMGRRLRTAFTSDQISTLEKTFQKHRYLGASERQKLAAKLQLSEVQIKTWFQNRRMKYKREIQDGRPDSYHPAQFFGVYGYAQQPTPVFQHAVQHPYPGYNPLMETLPGTMPYTMHPPAMDSMTPFNSQPFQMLYLPQQHLGQPLTYQEERPFVR
For the molecule B4, the binding result with TCF4 [1] was “binds”.
